Experimental data published in patent publication US12612442B2, “G12-specific designer receptor exclusively activated by designer drugs” (CELL NETWORKS GMBH, priority 2019, dated 2026).
At least one compound was matched to its structure with a doubt left.

Legend:
[1] = test system: M3D-derived chimeric constructs; test: TGFα shedding assay in ΔGq HEK293 cells, 26 M3D-derived chimeric constructs; type: cell-based, human; conditions: 10 μM acetylcholine, any of the tested constructs
adenylyl cyclase = test: GloSensor cAMP assay in ΔGs HEK293 cells; type: cell-based; conditions: 10 μM

Row | SMILES | G12 signaling (TGFα shedding response) [1] | Forskolin-induced cAMP response (adenylyl cyclase)
1 | CC(=O)OCC[N+](C)(C)C [Ach, acetylcholine] | did not induce detectable G12 signaling | –
2 | C=C[C@@]1(C)CC(=O)[C@]2(O)[C@@]3(C)[C@@H](O)CCC(C)(C)[C@@H]3[C@H](O)[C@H](OC(C)=O)[C@@]2(C)O1 [Forskolin] | – | attenuated
